Reference: article PMC10492306
These are yes or no findings as the source states them, for the method shown. In cells and extracts the contact can be indirect. Some results given as binding are weak or reduced against the parent protein; the word gives no strength.

Sequences of proteins named here, by UniProt entry; tags and fusion partners are left off.
UniProt O95782: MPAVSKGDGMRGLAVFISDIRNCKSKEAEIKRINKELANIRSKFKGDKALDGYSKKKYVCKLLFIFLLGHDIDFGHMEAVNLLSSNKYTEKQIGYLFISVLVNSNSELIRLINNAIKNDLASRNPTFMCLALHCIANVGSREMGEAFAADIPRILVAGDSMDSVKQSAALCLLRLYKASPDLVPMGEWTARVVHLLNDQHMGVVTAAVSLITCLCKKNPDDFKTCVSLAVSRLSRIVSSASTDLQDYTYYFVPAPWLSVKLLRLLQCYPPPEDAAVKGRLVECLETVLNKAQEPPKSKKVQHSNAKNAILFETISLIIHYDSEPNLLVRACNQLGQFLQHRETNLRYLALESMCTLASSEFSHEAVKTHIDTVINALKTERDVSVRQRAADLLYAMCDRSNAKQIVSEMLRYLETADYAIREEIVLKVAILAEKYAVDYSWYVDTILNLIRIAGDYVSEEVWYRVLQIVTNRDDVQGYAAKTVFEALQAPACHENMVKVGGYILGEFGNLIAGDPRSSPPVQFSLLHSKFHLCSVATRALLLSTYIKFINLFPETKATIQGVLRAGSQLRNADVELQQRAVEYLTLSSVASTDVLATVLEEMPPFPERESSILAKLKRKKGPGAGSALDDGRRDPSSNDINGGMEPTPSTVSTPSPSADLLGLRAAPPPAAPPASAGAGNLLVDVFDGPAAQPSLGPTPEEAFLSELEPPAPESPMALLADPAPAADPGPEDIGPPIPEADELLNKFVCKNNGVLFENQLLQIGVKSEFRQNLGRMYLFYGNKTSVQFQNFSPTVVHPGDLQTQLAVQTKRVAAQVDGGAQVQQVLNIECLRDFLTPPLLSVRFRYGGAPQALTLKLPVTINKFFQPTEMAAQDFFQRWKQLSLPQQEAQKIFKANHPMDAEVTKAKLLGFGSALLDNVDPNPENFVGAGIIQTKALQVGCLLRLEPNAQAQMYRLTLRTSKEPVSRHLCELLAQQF
UniProt P84022: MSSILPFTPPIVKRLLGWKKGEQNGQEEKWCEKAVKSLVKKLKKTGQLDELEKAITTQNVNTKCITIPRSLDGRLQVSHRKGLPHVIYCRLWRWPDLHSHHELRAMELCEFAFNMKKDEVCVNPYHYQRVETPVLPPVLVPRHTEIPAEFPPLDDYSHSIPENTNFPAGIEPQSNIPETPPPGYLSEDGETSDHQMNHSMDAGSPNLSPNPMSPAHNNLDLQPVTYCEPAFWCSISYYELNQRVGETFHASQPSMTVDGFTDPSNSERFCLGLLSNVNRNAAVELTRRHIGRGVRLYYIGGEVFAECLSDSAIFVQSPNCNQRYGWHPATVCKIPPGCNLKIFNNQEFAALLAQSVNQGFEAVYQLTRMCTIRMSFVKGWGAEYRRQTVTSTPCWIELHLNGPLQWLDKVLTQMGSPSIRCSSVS

Columns and labels:
[1] = target: AP2A1 (human (endogenous in PANC-1 and BxPC-3)) (UniProt O95782); test: co-IP; reciprocal: AP2A1 immunoprecipitates and SMAD3 immunoprecipitates from lysates of PANC-1 and BxPC-3 cells, western blot; 5 ng/ml TGF-β, 15 min; sh-ctrl or circEIF3I knockdown
[2] = target: SMAD3 (human (endogenous in PANC-1 and BxPC-3)) (UniProt P84022); test: as above

| binding [1] | binding [2] | Substance |
| --- | --- | --- |
| binds |  | SMAD3 (from UniProt P84022 1-425) |
|  | binds | AP2A1 (from UniProt O95782 1-977) |
